From patent publication US20050095632 come the findings set out here.

Chains of the proteins cited; added tags and fusions are not shown. Lines headed by an entry give the natural chain unless they say otherwise; changes in a name come on top.
UniProt P08515, whole entry: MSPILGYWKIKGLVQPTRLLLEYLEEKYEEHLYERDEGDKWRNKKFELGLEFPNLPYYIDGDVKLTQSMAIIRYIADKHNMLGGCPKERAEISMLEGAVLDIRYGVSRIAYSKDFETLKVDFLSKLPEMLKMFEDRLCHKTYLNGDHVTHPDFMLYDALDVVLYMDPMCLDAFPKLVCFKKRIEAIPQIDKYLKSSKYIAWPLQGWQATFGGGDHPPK
UniProt Q9BZB8: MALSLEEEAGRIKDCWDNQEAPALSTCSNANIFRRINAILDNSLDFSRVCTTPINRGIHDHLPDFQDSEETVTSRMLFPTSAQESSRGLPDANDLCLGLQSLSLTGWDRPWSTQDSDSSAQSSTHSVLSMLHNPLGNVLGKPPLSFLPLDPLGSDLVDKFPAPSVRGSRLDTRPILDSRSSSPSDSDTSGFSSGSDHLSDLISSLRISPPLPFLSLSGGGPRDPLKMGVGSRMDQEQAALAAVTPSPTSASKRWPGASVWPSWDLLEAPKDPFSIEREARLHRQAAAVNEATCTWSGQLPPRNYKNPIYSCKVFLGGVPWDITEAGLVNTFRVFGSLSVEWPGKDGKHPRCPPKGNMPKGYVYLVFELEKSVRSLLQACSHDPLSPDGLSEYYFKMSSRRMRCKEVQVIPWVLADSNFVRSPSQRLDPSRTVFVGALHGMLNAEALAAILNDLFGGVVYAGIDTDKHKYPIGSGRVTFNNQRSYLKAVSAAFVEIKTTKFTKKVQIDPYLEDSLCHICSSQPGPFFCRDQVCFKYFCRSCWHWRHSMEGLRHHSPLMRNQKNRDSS

The target of one series is GST moiety alone (UniProt P08515). The series can be described thus: EMSA. Conditions: no specific complex; nonspecific lysate complex seen; protein translated in vitro; protein details: GST from pXen1 vector without insert; label: 32P. In general terms: A gel shift assay detects complexes by their altered migration in electrophoresis.
The target of series [1] is GST-hCPEB1 (Homo sapiens) (UniProt Q9BZB8). Description: EMSA. Particulars: protein translated in vitro, label: 32P.
Setting [2] is: reticulocyte lysate, variant of human Mos 3' UTR wild-type.

The exact form of at least one protein or probe is not confirmed. Negatives hold for the conditions tested.

Regarding “CUGAAAACCUGGUCAAGAUAAGUUUUUGUCUGAUUCUAUUUCUUUUUAAAGGAAGUGGAGAUGUCGAAGAAAACAUAUUUGUAGGAUGGAGUUUUAGAAAAUAAAGUUACUAAAAACUC [human Mos 3' UTR wild-type]”, the results for the binding result (in the series with GST moiety alone; in series [1]) were “no binding” and “binds”, respectively.
Regarding “UGUUUGGGAAGAGUUUGGGAAAAUAAAGUU [human Mos 3' UTR mutant 3 (U5A and U4A disrupted)]”, in series [1] (setting [2]), the binding result was “no binding”.
With “UGUUUGGGAAGAGUUUUAGAAAAUAAAGUU [human Mos 3' UTR mutant 2 (U5A disrupted)]”, the binding result in series [1] (50-fold excess also had little effect as competitor, variant of human Mos 3' UTR wild-type) is listed as “no binding”.
With “UGUUUUUAAAGAGUUUGGGAAAAUAAAGUU [human Mos 3' UTR mutant 1 (U4A disrupted)]”, the binding result in series [1] (setting [2]) is reported as “binds”.
